Data reported in PMC11633497.
These are yes or no findings as the source states them, for the method shown. In cells and extracts the contact can be indirect. Some binding calls cover weakened binding; strength is not graded here.

Amino acid sequences for entries named in this document (tags omitted). Residues count along the entry.
UniProt P13128, residues 25-529: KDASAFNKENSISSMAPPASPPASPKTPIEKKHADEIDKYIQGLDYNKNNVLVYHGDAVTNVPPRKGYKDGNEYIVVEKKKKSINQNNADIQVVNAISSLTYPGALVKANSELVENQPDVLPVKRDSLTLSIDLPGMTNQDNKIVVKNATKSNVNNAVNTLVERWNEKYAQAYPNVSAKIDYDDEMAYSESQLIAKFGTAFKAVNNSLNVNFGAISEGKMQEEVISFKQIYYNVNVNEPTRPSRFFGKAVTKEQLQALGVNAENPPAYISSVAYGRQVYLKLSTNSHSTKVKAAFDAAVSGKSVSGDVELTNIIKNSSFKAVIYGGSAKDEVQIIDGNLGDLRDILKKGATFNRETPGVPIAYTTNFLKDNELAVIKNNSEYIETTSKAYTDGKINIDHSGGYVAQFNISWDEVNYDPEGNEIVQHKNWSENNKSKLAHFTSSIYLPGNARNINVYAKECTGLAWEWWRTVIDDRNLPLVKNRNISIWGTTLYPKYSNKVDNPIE

Biological target: T1, endogenous Mic60 (human (endogenous in THP-1)) (UniProt Q16891)
T1 sequence: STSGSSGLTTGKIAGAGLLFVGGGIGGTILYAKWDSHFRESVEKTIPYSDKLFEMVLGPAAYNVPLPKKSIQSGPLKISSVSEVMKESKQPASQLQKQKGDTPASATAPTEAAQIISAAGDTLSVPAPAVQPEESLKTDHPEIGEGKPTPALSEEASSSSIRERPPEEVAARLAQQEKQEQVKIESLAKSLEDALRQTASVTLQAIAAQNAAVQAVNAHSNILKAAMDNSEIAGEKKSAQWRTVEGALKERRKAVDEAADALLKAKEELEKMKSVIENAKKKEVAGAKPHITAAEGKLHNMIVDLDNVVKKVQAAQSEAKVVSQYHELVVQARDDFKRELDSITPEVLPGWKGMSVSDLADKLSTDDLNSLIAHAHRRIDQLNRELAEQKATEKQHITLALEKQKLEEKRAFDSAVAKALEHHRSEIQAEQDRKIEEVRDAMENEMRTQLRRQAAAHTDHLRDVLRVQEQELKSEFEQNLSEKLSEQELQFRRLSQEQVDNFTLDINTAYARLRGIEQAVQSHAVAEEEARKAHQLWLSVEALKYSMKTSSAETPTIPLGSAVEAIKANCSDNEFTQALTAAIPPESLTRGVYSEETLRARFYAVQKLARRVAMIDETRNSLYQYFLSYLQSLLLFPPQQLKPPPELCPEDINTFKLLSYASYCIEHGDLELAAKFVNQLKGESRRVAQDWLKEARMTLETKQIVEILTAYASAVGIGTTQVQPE
Experiment: co-IP

Substance: LLO produced by L. monocytogenes (from UniProt P13128 25-529)
- binding: binds
